Reference: paper PMC6321601 (Molecules, 2018)

Test system: HepG-2 and L-O2 cell lines
Experiment: Therapeutic index, ratio of IC50 for L-O2 to IC50 for HepG-2
Assay type: cell-based, human
Conditions: IC50 (L-O2)/IC50 (HepG-2)

Compound | TI (Therapeutic Index)
CC(=O)OC(C)(C)/C=C/C(=O)[C@](C)(O)C1[C@H](OC(=O)CCC(=O)OCCCCCCOc2no[n+]([O-])c2S(=O)(=O)c2ccccc2)C[C@@]2(C)C3CC=C4C(CC(O)C(=O)C4(C)C)[C@]3(C)C(=O)C[C@]12C (stereo partly drawn) [Compound 10e, 4-((6-((4-(((9R,13R,14S,16R)-17-((R,E)-6-Acetoxy-2-hydroxy-6-methyl-3-oxohept-4-en-2-yl)-2-hydroxy-4,4,9,13,14-pentamethyl-3,11-dioxo-2,3,4,7,8,9,10,11,12,13,14,15,16,17-tetradecahydro-1H-cyclopenta[a]phenanthren-16-yl)oxy)-4-oxobutanoyl)oxy)hexyl)oxy)-3-(phenylsulfonyl)-1,2,5-oxadiazole 2-oxide] | 2.79
CC(=O)OC(C)(C)/C=C/C(=O)[C@](C)(O)C1[C@H](OC(=O)CCC(=O)OC/C=C/COc2no[n+]([O-])c2S(=O)(=O)c2ccccc2)C[C@@]2(C)C3CC=C4C(CC(O)C(=O)C4(C)C)[C@]3(C)C(=O)C[C@]12C (stereo partly drawn) [Compound 10l, 4-(((E)-4-((4-(((9R,13R,14S,16R)-17-((R,E)-6-Acetoxy-2-hydroxy-6-methyl-3-oxohept-4-en-2-yl)-2-hydroxy-4,4,9,13,14-pentamethyl-3,11-dioxo-2,3,4,7,8,9,10,11,12,13,14,15,16,17-tetradecahydro-1H-cyclopenta[a]phenanthren-16-yl)oxy)-4-oxobutanoyl)oxy)but-2-en-1-yl)oxy)-3-(phenylsulfonyl)-1,2,5-oxadiazole 2-oxide] | 2.69
CC(=O)OC(C)(C)/C=C/C(=O)[C@](C)(O)C1[C@H](OC(=O)CCC(=O)OCCCCCCCCCCOc2no[n+]([O-])c2S(=O)(=O)c2ccccc2)C[C@@]2(C)C3CC=C4C(CC(O)C(=O)C4(C)C)[C@]3(C)C(=O)C[C@]12C (stereo partly drawn) [Compound 10i, 4-((10-((4-(((9R,13R,14S,16R)-17-((R,E)-6-Acetoxy-2-hydroxy-6-methyl-3-oxohept-4-en-2-yl)-2-hydroxy-4,4,9,13,14-pentamethyl-3,11-dioxo-2,3,4,7,8,9,10,11,12,13,14,15,16,17-tetradecahydro-1H-cyclopenta[a]phenanthren-16-yl)oxy)-4-oxobutanoyl)oxy)decyl)oxy)-3-(phenylsulfonyl)-1,2,5-oxadiazole 2-oxide] | 0.47
CC(=O)OC(C)(C)/C=C/C(=O)[C@](C)(O)C1[C@H](OC(=O)CCC(=O)NCCCOc2no[n+]([O-])c2S(=O)(=O)c2ccccc2)C[C@@]2(C)C3CC=C4C(CC(O)C(=O)C4(C)C)[C@]3(C)C(=O)C[C@]12C (stereo partly drawn) [Compound 9b, 4-(3-(4-(((9R,13R,14S,16R)-17-((R,E)-6-Acetoxy-2-hydroxy-6-methyl-3-oxohept-4-en-2-yl)-2-hydroxy-4,4,9,13,14-pentamethyl-3,11-dioxo-2,3,4,7,8,9,10,11,12,13,14,15,16,17-tetradecahydro-1H-cyclopenta[a]phenanthren-16-yl)oxy)-4-oxobutanamido)propoxy)-3-(phenylsulfonyl)-1,2,5-oxadiazole 2-oxide] | 1.51
